Experimental data taken from the supplement of paper PMC12067093, “Discovery and optimisation of a covalent ligand for TRIM25 and its application to targeted protein ubiquitination” (Chemical Science, 2025).
Some of the results follow.

Amino acid sequences for entries named in this document (tags omitted). A change or cut given only in a name is not applied to a line headed by its entry.
UniProt Q9NZL4: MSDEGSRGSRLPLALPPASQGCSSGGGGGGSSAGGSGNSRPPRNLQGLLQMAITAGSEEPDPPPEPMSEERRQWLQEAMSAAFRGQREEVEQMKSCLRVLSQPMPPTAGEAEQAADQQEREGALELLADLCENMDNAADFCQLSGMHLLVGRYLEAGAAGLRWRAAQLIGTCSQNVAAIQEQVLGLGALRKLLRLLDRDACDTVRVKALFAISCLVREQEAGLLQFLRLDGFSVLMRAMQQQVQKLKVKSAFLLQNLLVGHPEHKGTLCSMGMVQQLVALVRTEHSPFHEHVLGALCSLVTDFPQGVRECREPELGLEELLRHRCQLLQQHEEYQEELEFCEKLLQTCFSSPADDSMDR
UniProt P38646: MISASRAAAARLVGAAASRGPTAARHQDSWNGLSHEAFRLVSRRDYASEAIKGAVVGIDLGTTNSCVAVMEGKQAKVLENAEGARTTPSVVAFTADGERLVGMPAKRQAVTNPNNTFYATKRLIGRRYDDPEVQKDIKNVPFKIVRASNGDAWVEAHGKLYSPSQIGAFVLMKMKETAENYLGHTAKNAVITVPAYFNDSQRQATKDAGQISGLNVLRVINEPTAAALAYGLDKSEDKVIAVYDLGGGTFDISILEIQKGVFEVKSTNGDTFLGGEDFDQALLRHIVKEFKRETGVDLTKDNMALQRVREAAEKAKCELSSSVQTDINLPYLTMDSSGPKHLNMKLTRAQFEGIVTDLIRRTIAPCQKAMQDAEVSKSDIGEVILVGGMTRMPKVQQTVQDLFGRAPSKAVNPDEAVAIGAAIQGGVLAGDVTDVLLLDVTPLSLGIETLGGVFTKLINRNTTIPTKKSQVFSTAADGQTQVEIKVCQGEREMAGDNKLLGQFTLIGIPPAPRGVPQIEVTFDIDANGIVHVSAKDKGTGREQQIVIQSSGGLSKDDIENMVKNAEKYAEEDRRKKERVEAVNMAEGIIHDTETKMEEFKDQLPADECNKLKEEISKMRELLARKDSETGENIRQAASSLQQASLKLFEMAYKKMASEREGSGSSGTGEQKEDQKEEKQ
UniProt Q00839, whole entry, looked up: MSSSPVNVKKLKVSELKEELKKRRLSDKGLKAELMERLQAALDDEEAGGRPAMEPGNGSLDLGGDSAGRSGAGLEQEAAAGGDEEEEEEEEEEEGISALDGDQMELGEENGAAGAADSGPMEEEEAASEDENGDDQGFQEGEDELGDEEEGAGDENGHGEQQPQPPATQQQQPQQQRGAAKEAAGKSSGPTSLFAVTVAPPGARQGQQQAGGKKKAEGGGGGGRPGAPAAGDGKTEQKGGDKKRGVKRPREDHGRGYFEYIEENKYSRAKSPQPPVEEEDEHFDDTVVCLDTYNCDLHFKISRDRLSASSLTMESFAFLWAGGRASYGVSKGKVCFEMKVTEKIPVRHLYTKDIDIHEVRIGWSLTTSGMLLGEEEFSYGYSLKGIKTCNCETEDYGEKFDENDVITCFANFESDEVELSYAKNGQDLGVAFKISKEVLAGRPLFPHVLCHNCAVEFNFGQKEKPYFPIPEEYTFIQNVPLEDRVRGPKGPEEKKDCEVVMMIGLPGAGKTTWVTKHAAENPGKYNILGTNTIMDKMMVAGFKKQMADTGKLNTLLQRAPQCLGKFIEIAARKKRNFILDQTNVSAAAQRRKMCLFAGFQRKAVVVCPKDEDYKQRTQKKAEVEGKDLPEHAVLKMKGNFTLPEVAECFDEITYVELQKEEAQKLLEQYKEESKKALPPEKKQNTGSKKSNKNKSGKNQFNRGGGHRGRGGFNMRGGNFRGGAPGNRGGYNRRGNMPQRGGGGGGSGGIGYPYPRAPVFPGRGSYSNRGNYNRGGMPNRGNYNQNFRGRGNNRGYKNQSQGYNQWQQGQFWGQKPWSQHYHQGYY
UniProt P10809, whole entry, looked up: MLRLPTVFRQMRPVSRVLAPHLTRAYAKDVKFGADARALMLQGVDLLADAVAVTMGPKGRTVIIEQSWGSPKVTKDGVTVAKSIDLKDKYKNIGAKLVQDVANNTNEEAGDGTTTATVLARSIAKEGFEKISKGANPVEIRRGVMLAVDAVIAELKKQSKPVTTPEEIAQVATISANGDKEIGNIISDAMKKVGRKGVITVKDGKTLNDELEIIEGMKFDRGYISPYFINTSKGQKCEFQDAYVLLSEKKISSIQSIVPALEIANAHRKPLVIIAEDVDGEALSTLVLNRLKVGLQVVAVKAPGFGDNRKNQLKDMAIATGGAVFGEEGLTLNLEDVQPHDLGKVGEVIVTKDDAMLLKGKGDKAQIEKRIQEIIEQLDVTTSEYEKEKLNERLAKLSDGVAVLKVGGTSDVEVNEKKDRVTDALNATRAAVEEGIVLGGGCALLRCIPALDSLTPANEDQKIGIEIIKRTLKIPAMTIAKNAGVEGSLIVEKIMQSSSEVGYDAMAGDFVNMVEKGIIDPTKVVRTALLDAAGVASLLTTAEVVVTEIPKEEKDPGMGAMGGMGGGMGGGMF
UniProt Q8NBQ5: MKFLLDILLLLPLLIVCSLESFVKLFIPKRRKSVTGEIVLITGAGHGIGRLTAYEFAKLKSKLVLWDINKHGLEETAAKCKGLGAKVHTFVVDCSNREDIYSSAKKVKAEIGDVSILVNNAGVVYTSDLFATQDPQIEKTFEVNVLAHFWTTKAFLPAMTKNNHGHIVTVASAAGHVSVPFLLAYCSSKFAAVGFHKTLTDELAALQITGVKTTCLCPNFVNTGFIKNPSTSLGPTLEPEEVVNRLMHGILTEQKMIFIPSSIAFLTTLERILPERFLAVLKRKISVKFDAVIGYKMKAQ
UniProt Q9NQG7: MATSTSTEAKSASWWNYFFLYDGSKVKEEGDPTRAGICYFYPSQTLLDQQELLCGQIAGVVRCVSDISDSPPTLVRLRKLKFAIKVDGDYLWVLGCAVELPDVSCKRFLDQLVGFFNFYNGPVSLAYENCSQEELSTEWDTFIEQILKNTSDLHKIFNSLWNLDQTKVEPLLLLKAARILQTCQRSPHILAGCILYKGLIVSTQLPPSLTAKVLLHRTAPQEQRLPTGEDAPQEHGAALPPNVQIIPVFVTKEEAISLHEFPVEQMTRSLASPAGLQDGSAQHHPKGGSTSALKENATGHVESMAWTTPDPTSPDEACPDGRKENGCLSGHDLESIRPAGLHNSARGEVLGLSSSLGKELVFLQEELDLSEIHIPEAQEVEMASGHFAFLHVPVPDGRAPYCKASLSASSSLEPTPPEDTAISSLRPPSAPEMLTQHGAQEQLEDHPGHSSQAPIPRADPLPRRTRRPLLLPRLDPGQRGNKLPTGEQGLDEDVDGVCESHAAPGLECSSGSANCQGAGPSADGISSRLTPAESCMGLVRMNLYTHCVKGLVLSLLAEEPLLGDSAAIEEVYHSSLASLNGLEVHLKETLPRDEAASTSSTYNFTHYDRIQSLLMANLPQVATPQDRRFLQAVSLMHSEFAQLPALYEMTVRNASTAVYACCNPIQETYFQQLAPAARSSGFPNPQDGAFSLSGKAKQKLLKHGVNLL
UniProt O95757: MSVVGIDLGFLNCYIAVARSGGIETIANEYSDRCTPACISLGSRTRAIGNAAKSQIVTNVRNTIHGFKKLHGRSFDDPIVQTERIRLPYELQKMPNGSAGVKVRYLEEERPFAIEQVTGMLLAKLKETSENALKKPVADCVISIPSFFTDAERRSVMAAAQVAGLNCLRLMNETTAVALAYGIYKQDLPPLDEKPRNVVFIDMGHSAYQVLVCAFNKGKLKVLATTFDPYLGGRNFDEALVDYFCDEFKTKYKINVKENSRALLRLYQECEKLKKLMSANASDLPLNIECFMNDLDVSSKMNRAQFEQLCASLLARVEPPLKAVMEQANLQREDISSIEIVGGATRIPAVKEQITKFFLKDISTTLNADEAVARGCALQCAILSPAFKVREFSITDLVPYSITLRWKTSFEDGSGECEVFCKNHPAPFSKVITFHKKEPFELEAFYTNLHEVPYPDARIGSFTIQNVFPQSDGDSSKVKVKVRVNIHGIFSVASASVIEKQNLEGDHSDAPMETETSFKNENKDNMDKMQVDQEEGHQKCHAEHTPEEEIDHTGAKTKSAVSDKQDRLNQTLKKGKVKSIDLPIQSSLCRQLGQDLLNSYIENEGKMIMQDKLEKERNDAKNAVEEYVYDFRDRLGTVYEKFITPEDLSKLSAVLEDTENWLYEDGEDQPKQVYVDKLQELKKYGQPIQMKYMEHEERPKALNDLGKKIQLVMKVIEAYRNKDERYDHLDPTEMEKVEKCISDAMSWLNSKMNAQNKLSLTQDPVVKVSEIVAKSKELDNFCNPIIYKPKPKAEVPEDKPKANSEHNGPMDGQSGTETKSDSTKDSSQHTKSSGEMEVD
UniProt P34932: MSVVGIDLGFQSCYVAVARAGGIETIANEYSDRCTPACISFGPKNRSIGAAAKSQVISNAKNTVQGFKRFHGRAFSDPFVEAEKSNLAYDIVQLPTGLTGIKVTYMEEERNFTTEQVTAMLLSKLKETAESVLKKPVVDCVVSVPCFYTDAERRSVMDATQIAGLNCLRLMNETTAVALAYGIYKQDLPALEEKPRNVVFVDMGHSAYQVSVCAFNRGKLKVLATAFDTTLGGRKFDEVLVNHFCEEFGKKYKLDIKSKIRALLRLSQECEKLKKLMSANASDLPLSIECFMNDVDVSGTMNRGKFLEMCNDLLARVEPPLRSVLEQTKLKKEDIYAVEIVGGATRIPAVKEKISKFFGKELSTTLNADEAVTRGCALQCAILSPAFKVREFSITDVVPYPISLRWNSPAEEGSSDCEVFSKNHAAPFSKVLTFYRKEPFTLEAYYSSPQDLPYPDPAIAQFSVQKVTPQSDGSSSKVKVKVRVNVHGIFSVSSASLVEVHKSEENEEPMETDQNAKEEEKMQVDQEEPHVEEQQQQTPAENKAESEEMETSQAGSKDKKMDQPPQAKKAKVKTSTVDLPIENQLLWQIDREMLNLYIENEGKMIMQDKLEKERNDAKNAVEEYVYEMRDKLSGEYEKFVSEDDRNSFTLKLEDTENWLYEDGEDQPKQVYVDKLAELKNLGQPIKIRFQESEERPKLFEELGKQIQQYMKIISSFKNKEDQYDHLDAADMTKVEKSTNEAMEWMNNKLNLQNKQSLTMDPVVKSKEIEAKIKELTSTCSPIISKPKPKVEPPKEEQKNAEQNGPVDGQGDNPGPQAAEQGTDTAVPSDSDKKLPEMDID
UniProt Q6YN16: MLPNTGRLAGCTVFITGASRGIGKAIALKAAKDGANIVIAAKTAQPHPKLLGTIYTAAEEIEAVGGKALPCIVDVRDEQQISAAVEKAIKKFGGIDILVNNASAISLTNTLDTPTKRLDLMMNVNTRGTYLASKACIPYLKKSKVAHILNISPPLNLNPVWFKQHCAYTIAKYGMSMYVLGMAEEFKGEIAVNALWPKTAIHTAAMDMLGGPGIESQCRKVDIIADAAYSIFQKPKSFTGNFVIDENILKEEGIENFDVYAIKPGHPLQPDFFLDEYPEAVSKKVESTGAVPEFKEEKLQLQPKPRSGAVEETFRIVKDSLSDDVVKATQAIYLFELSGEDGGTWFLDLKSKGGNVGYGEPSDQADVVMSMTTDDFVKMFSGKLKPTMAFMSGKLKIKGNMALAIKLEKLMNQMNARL
UniProt Q92598: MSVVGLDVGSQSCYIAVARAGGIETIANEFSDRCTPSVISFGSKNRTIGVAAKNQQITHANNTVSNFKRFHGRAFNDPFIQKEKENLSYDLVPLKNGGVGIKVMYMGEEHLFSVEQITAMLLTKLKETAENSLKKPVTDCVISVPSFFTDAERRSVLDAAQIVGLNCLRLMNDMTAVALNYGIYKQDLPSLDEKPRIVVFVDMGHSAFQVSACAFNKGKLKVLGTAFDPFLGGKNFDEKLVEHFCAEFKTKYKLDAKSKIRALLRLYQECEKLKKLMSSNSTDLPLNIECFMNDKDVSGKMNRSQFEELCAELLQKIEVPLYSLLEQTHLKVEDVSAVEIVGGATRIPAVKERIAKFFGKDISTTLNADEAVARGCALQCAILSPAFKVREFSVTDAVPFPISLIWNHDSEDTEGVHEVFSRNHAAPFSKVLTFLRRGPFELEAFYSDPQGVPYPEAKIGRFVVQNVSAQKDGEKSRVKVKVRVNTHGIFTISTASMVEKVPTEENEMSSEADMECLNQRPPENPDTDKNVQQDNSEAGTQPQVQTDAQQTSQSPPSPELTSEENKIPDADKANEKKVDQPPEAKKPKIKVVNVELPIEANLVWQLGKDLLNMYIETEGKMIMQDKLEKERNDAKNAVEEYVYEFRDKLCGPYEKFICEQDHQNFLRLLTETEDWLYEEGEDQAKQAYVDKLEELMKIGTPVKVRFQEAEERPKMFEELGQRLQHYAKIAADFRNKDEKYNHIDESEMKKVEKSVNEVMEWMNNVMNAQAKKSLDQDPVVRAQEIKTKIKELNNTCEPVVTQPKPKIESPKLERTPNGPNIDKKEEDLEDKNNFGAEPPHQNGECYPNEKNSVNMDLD

Compound: Cc1cc(ccc1-c1ccccc1)C(=O)N1CCCN(CC1)C(=O)CCl [compound 10]
Assay: probe-labelled cysteine peptide fold change vs DMSO (competition) (log2 fold change); higher = less target engagement (more negative = stronger competition)
Conditions: THP-1, incubation time: 4 h
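Also: competitive profiling in live THP-1 cells: cysteine peptides tagged with an iodoacetamide desthiobiotin (IA-DTB) probe, intensity after compound treatment relative to DMSO-treated cells.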

| Target | probe-labelled cysteine peptide fold change (10 µM) | probe-labelled cysteine peptide fold change (50 µM) |
| --- | --- | --- |
| HNRNPUL1_Q9BUJ2_421_SKAECEILMMVGLPAAGK (UniProt Q9BUJ2) | 0.0608 | -0.134 |
| HSD17B10_Q99714_91_VDVAVNCAGIAVASK (UniProt Q99714) | 0.0196 | 0.0597 |
| HSPBP1_Q9NZL4_325_CQLLQQHEEYQEELEFCEK (UniProt Q9NZL4) | 0.048 | 0.0616 |
| HSPBP1_Q9NZL4_348_LLQTCFSSPADDSMDR (UniProt Q9NZL4) | 0.0573 | -0.0872 |
| HNRNPA1_P09651_175_YHTVNGHNCEVRK (UniProt P09651) | -0.215 | -0.251 |
| HSPA9_P38646_608_DQLPADECNK (UniProt P38646) | 0.0861 | 0.278 |
| HNRNPL_P14866_521_IQHPSNVLHFFNAPLEVTEENFFEICDELGVK (UniProt P14866) | 0.092 | 0.207 |
| HNRNPU_Q00839_450+453_PLFPHVLCHNCAVEFNFGQK (UniProt Q00839) | -0.0224 | -0.192 |
| HSPD1_P10809_447_CIPALDSLTPANEDQK (UniProt P10809) | 0.156 | -0.0295 |
| HSP90AA1_P07900_597+598_LVTSPCCIVTSTYGWTANMER (UniProt P07900) | 0.115 | -0.354 |
| HSD17B11_Q8NBQ5_215+217_TTCLCPNFVNTGFIK (UniProt Q8NBQ5) | 0.115 | -0.449 |
| HNRNPC_P07910_46_IVGCSVHK (UniProt P07910) | 0.221 | 0.221 |
| HPCAL1_P37235_38_DCPTGHLTVDEFK (UniProt P37235) | 0.079 | 0.248 |
| HSPA9_P38646_317_CELSSSVQTDINLPYLTMDSSGPK (UniProt P38646) | 0.0304 | 0.137 |
| HSPD1_P10809_237_CEFQDAYVLLSEK (UniProt P10809) | -0.0669 | 0.139 |
| HNRNPLL_Q8WVV9_474_LCNDHEVLTFIK (UniProt Q8WVV9) | 0.0891 | 0.0285 |
| HTT_P42858_664_FVLRDEATEPGDQENKPCR (UniProt P42858) | -0.112 | -0.471 |
| HNRNPDL_O14979_277_RGFCFITYTDEEPVKK (UniProt O14979) | 0.232 | -0.27 |
| HPS4_Q9NQG7_183_ILQTCQR (UniProt Q9NQG7) | 0.23 | 0.0373 |
| HOOK3_Q86VS8_199_CHELDMQVAALQEEK (UniProt Q86VS8) | 0.238 | 0.132 |
| HNRNPU_Q00839_450_PLFPHVLCHNCAVEFNFGQK (UniProt Q00839) | 0.144 | 0.0368 |

| Target | probe-labelled cysteine peptide fold change (10 µM) | probe-labelled cysteine peptide fold change (50 µM) |
| --- | --- | --- |
| HNRNPU_Q00839_607_AVVVCPK (UniProt Q00839) | -0.057 | 0.347 |
| HPF1_Q9NWY4_60_FCEELDPEK (UniProt Q9NWY4) | 0.38 | 0.515 |
| HSPA4L_O95757_245_NFDEALVDYFCDEFK (UniProt O95757) | 0.026 | 0.12 |
| HOMEZ_Q8IX15_273_DKPPPIALIASSCK (UniProt Q8IX15) | -0.152 | 0.067 |
| HSPA4L_O95757_167_SVMAAAQVAGLNCLR (UniProt O95757) | -0.0227 | 0.0182 |
| HSD17B7_P56937_32_LLAEDDELHLCLACR (UniProt P56937) | 0.0942 | 0.0496 |
| HSD17B4_P51659_373_FIYEGSSDFSCLPTFGVIIGQK (UniProt P51659) | 0.115 | 0.149 |
| HPS5_Q9UPZ3_775_STSGHVDHTLQQYSPEILACQFLK (UniProt Q9UPZ3) | 0.0829 | 0.02 |
| HPRT1_P00492_106_SYCNDQSTGDIK (UniProt P00492) | -0.203 | -0.311 |
| HSPA4L_O95757_34+38_CTPACISLGSR (UniProt O95757) | 0.153 | -0.086 |
| HSPA4_P34932_779_ELTSTCSPIISKPK (UniProt P34932) | -0.0433 | -0.665 |
| HSPD1_P10809_442_AAVEEGIVLGGGCALLR (UniProt P10809) | 0.0163 | -0.0109 |
| HSPBP1_Q9NZL4_341_CQLLQQHEEYQEELEFCEK (UniProt Q9NZL4) | 0.137 | 0.242 |
| HPS6_Q86YV9_141_LVWCEER (UniProt Q86YV9) | -0.106 | -0.266 |
| HSD17B11_Q8NBQ5_94_VHTFVVDCSNR (UniProt Q8NBQ5) | 0.131 | 0.129 |
| HNRNPA0_Q13151_36_GHFEAFGTLTDCVVVVNPQTK (UniProt Q13151) | 0.0272 | -0.135 |
| HSPA4_P34932_417_WNSPAEEGSSDCEVFSK (UniProt P34932) | -0.232 | -0.145 |
| HSPA4_P34932_290_KLMSANASDLPLSIECFMNDVDVSGTMNR (UniProt P34932) | 0.0906 | -0.566 |
| HPRT1_P00492_23_SPGVVISDDEPGYDLDLFCIPNHYAEDLER (UniProt P00492) | -0.297 | -0.173 |
| HNRNPL_P14866_260+261_ASLNGADIYSGCCTLK (UniProt P14866) | 0.0811 | -0.289 |
| HNRNPH2_P55795_290_YGDGGSSFQSTTGHCVHMR (UniProt P55795) | 0.0204 | -0.0217 |

| Target | probe-labelled cysteine peptide fold change (10 µM) | probe-labelled cysteine peptide fold change (50 µM) |
| --- | --- | --- |
| HSPA1A_P0DMV8_17_AAAIGIDLGTTYSCVGVFQHGK (UniProt P0DMV8) | 0.828 | 0.931 |
| HNRNPF_P52597_290_YGDSEFTVQSTTGHCVHMR (UniProt P52597) | 0.1 | 0.188 |
| HSDL2_Q6YN16_136_ACIPYLK (UniProt Q6YN16) | -0.159 | -0.0627 |
| HSPH1_Q92598_658_FICEQDHQNFLR (UniProt Q92598) | 0.242 | 0.155 |
| HSP90AB1_P08238_366_RVFIMDSCDELIPEYLNFIR (UniProt P08238) | -0.0427 | -0.153 |
| HP1BP3_Q5SSJ5_359_TCSTTALKK (UniProt Q5SSJ5) | -0.166 | -0.452 |
| HNRNPR_O43390_99_SAFLCGVMK (UniProt O43390) | 0.107 | -0.182 |
| HSPH1_Q92598_34_CTPSVISFGSK (UniProt Q92598) | 0.114 | 0.0449 |
| HSPA2_P54652_191_GCAGGEK (UniProt P54652) | -0.132 | -0.342 |
| HSP90B1_P14625_645_LTESPCALVASQYGWSGNMER (UniProt P14625) | -0.219 | 0.0319 |
| HNRNPM_P52272_676_FNECGHVLYADIK (UniProt P52272) | 0.12 | 0.0407 |
| HSD17B12_Q53GQ0_166_MININILSVCK (UniProt Q53GQ0) | -0.0236 | 0.243 |
| HSPA4_P34932_140+146_KPVVDCVVSVPCFYTDAERR (UniProt P34932) | -0.0948 | -0.274 |
| HSPBAP1_Q96EW2_293_MLVCALK (UniProt Q96EW2) | 0.297 | 0.184 |
| HSPA4L_O95757_140_KPVADCVISIPSFFTDAER (UniProt O95757) | 0.132 | 0.472 |
| HSPH1_Q92598_796_ELNNTCEPVVTQPK (UniProt Q92598) | 0.219 | 0.0465 |
| HSPA4L_O95757_213_NVVFIDMGHSAYQVLVCAFNK (UniProt O95757) | 0.158 | 0.279 |
| HSPB11_Q9Y547_52_HPPENIIDGNPETFWTTTGMFPQEFIICFHK (UniProt Q9Y547) | 0.0782 | 0.167 |
| HNRNPU_Q00839_607_KAVVVCPK (UniProt Q00839) | -0.015 | -0.302 |
